Source: patent publication US20240208992A1 (Idorsia Pharmaceuticals Ltd, priority 2021, published 2024)

Experiments:
peptide synthesis = settings: for step yield: coupling step; for cyclisation yield: cyclisation step
[1] = Fmoc solid-phase peptide synthesis; Wang resin; HATU/DIPEA (solution); DCC or DIC with HOBt/DMAP for resin loading; settings: whole synthesis, scale 0.135 mmol

| Substance | step yield (peptide synthesis) | isolated mass [1] | isolated yield [1] | cyclisation yield (peptide synthesis) |
| --- | --- | --- | --- | --- |
| (3S,7S,10R,13R)-10,13-Dibenzyl-20-fluoro-7-isobutyl-6,9-dimethyl-N-(2-(3-methylisoxazol-5-yl)ethyl)-1,5,8,11-tetraoxo-1,2,3,4,5,6,7,8,9,10,11,12,13,14-tetradecahydro-[1]oxa[4,7,10,14]tetraazacycloheptadecino[17,16-c]quinoline-3-carboxamide | 56% |  |  |  |
| (3'S,7'S,13′R)-13′-Benzyl-N-(2-(3-cyclopropylisoxazol-5-yl)ethyl)-20′-fluoro-7′-isobutyl-6′,9′-dimethyl-1′,5′,8′,11′-tetraoxo-2′,3′,4′,5′,6′,7′,8′,9′,11′,12′,13′,14′-dodecahydro-1′H-spiro[cyclobutane-1,10′-[1]oxa[4,7,10,14]tetraazacycloheptadecino[17,16-c]quinoline]-3′-carboxamide | 67% |  |  |  |
| (7R,13S,17S)-7-Benzyl-11-(3,3-dimethylbutyl)-13-isobutyl-14-methyl-9,12,15,19-tetraoxo-6,7,8,9,10,11,12,13,14,15,16,17,18,19-tetradecahydro-[1,3]dioxolo[4′,5′:4,5]benzo[1,2-p][1]oxa[4,7,10,14]tetraazacycloheptadecine-17-carboxylic acid |  | 22 mg | 26% |  |
| (3S,7S,13R)-13-benzyl-7-isobutyl-6-methyl-1,5,8,11-tetraoxo-9-(((R)-tetrahydro-2H-pyran-2-yl)methyl)-1,2,3,4,5,6,7,8,9,10,11,12,13,14-tetradecahydronaphtho[1,2-p][1]oxa[4,7,10,14]tetraazacycloheptadecine-3-carboxylic acid | 76% |  |  |  |
| (3S,7S,13R)—N-(2-(Benzo[d][1,3]dioxol-5-yl)ethyl)-13-benzyl-9-(((S)-chroman-3-yl)methyl)-7-isobutyl-6-methyl-1,5,8,11-tetraoxo-1,2,3,4,5,6,7,8,9,10,11,12,13,14-tetradecahydronaphtho[1,2-p][1]oxa[4,7,10,14]tetraazacycloheptadecine-3-carboxamide | 84% |  |  | 97% |
| (3R,9S,13S)-3-benzyl-7-(2-cyclohexylethyl)-9-(cyclopropylmethyl)-17,18-dimethoxy-10-methyl-5,8,11,15-tetraoxo-2,3,4,5,6,7,8,9,10,11,12,13,14,15-tetradecahydrobenzo[p][1]oxa[4,7,10,14]tetraazacycloheptadecine-13-carboxylic acid | 97.1% |  |  | 13% |
| (3S,7S,10R,13R)-13-benzyl-10-((benzyloxy)methyl)-7-isobutyl-N-(3-methoxyphenethyl)-6,9-dimethyl-1,5,8,11-tetraoxo-1,2,3,4,5,6,7,8,9,10,11,12,13,14-tetradecahydronaphtho[1,2-p][1]oxa[4,7,10,14]tetraazacycloheptadecine-3-carboxamide | 80% |  |  | 82% |
